No constants are given. Whether binding was seen depends on the method and setting. Some results given as binding are weak or reduced against the parent protein; the word gives no strength.
Experiments:
[1] = target: T1, Regnase-1 PIN domain, catalytically inactive monomeric mutant (DDNN and D278R) (Mus musculus) (UniProt Q5D1E7); assay: NMR titration; 1H-15N HSQC of 15N-labeled PIN (DDNN, D278R) at 100 uM with 3 or 6 molar equivalents of unlabeled NTD; 298 K; both purified
T1 sequence: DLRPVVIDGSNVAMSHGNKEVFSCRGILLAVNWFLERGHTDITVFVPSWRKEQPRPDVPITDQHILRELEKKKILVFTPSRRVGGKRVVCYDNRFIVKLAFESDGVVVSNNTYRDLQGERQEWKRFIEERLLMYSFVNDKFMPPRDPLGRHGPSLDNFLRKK

[2] = target: Regnase-1 PIN domain P212A (Mus musculus) (UniProt Q5D1E7); assay: SEC; gel filtration of the PIN domain and its mutants; elution volume compared with standard marker proteins; concentration dependent, 20-200 uM range; both purified
[3] = target: Regnase-1 PIN domain R214A (Mus musculus) (UniProt Q5D1E7); assay: as above
[4] = target: Regnase-1 PIN domain D278R (Mus musculus) (UniProt Q5D1E7); assay: as above

B1: Regnase-1 N-terminal domain (NTD) (domain or fragment, Mus musculus)
chain: TSELQMKVDFFRKLGYSSSEIHSVLQKLGVQADTNTVLGELVKHG
notes: Regnase-1 (Zc3h12a), Mus musculus, N-terminal domain; residues 90-133 are called the connection between the NTD and PIN; Uniformly 15N-labelled or unlabelled in the NMR experiments; not shown: GST, N-terminal, cleaved
binding [1]: binds

B2: Regnase-1 PIN domain P212A (domain or fragment, UniProt Q5D1E7 134-295)
chain: DLRPVVIDGSNVAMSHGNKEVFSCRGILLAVNWFLERGHTDITVFVPSWRKEQPRPDVPITDQHILRELEKKKILVFTASRRVGGKRVVCYDDRFIVKLAFESDGVVVSNDTYRDLQGERQEWKRFIEERLLMYSFVNDKFMPPDDPLGRHGPSLDNFLRKK
binding [2]: no binding

B3: Regnase-1 PIN domain R214A (domain or fragment, UniProt Q5D1E7 134-295)
chain: DLRPVVIDGSNVAMSHGNKEVFSCRGILLAVNWFLERGHTDITVFVPSWRKEQPRPDVPITDQHILRELEKKKILVFTPSARVGGKRVVCYDDRFIVKLAFESDGVVVSNDTYRDLQGERQEWKRFIEERLLMYSFVNDKFMPPDDPLGRHGPSLDNFLRKK
binding [3]: no binding

B4: Regnase-1 PIN domain D278R (domain or fragment, UniProt Q5D1E7 134-295)
chain: DLRPVVIDGSNVAMSHGNKEVFSCRGILLAVNWFLERGHTDITVFVPSWRKEQPRPDVPITDQHILRELEKKKILVFTPSRRVGGKRVVCYDDRFIVKLAFESDGVVVSNDTYRDLQGERQEWKRFIEERLLMYSFVNDKFMPPRDPLGRHGPSLDNFLRKK
binding [4]: no binding
